Measured values: paper PMC2566595
Results are given in words; binding and its absence hold for the method and conditions named. Binding seen in cells or lysates may run through a third protein. Some binding calls cover weakened binding; strength is not graded here.

Sequences of proteins named here, by UniProt entry; tags and fusion partners are left off. A change or cut given only in a name is not applied to a line headed by its entry. A line that says so, or that is headed by a name, gives the form on record, which may keep a tag or linker. Residues count along the entry.
UniProt Q676U5: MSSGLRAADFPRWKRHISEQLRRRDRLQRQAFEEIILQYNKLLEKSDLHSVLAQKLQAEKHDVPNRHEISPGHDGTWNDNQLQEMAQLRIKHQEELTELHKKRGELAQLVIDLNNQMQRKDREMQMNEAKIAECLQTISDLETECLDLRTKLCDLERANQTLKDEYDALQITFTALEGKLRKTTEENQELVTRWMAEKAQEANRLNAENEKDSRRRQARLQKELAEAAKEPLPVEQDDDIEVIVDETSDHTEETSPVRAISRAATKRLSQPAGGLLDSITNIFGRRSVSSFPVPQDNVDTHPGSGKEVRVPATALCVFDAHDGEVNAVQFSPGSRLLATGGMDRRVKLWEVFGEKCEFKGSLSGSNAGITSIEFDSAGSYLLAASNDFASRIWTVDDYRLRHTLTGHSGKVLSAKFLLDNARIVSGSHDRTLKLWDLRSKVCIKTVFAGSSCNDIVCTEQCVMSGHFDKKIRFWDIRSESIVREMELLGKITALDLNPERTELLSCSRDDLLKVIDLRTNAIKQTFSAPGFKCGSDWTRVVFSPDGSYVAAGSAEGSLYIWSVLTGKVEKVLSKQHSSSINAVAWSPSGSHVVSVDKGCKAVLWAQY
ATG16L1 ΔN (amino acids 85-607 of isoform 1, *300T), FLAG-tagged: residues 85-607 of Q676U5
ATG16L1 WD (amino acids 286-607 of isoform 1, *300T), FLAG-tagged: residues 286-607 of Q676U5
human ATG16L1 isoform 1, Crohn's disease-associated coding variant ATG16L1*300A (Q676U5-1, form named): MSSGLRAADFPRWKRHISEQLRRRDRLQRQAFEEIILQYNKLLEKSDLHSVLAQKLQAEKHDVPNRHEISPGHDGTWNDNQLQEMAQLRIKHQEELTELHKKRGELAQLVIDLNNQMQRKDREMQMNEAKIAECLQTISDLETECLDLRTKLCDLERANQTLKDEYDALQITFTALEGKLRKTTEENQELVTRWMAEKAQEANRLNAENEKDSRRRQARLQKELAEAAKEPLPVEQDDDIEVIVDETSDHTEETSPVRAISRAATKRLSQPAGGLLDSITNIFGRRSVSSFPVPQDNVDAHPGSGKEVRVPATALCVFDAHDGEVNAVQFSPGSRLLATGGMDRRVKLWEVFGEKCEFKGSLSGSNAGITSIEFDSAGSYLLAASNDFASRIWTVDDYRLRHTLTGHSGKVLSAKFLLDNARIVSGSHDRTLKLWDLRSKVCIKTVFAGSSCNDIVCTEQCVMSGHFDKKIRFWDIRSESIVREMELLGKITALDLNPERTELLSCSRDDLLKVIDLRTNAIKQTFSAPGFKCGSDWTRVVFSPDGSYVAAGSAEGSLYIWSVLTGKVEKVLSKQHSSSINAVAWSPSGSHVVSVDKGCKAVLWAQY

Key:
Assay in all cases: co-IP; HEK293T cells co-transfected with N-terminally FLAG-tagged ATG16L1 constructs and MYC-tagged ATG16L1 or HA-tagged ATG5; lysed 40 h post-transfection; lysate incubated with anti-FLAG antibody and goat anti-mouse beads overnight at 4°C; Western blot with anti-MYC or anti-HA antibody
[1] = molecular target: human ATG16L1 isoform 1, Crohn's disease-associated coding variant ATG16L1*300A (human) (UniProt Q676U5)
[2] = molecular target: human ATG16L1 isoform 1, ATG16L1*300T (human) (UniProt Q676U5)
[3] = molecular target: ATG16L1 ΔN (amino acids 85-607 of isoform 1, *300T), FLAG-tagged (human) (UniProt Q676U5)
[4] = molecular target: ATG16L1 WD (amino acids 286-607 of isoform 1, *300T), FLAG-tagged (human) (UniProt Q676U5)

binding [1]	binding [2]	binding [3]	binding [4]	Substance
binds				human ATG16L1 isoform 1, Crohn's disease-associated coding variant ATG16L1*300A (from UniProt Q676U5-1 1-607)
	binds	binds	no binding	human ATG16L1 isoform 1, ATG16L1*300T (from UniProt Q676U5-1 1-607)
